PubChem BioAssay AID1259405 – NCATS – 2018
The deposit covers about 50,000 reagents; this is an unselected part. In the full data, about 4,000 (8%) were called active. 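Mouse siRNA library applied to hamster cells; one well for each siRNA.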 A number with no mark means an inactive call. The numbers tell different reagents against one gene apart.

Screen: 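Mouse-designed siRNAs used to find CHO productivity engineering targets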 (primary screen)
Cell system: Chinese hamster CHO-K1 ovary cells with stable secreted eGFP expression
Reagent: single siRNA against mouse genes, 0.8 pmol siRNA per well (2 µl of 400 nM stock)
Duration: 3 days
Detection: 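Per-well intracellular GFP measured by laser scanning cytometry, plus viability from ATP luminescence, each relative to plate median of non-targeting control wells, in %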
Reading the numbers: GFP, % of control: higher = more GFP per well, higher productivity; viability (ATP), % of control: higher = more viable cells (more ATP)
Active means: 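Called active when intracellular GFP, relative to negative control, is at or above 120%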

| target | siRNA no. | GFP, % of control | viability (ATP), % of control |
| --- | --- | --- | --- |
| Ermap | 1 | 70.6 | 71.7 |
| Ermap | 2 | 69.2 | 52.6 |
| Ermap | 3 | 75.6 | 77.6 |
| Il2 | 1 | 89.4 | 95.3 |
| Il2 | 2 | 79.8 | 74.5 |
| Or8u8 | 1 | 62.2 | 56.2 |
| Or8u8 | 2 | 125 (active) | 78.4 |
| Or8u8 | 3 | 112 | 81.6 |
| Tesc | 1 | 54.4 | 55.4 |
| Tesc | 2 | 44.1 | 39.5 |
| Tesc | 3 | 69.5 | 83.4 |
| Ide | 1 | 111 | 82.8 |
| Ide | 2 | 62.2 | 46.1 |
| Ide | 3 | 74.8 | 53.3 |
| Trappc1 | 1 | 70.4 | 64.6 |
| Trappc1 | 2 | 125 (active) | 114 |
| Trappc1 | 3 | 85.3 | 73.9 |
| Or10a2 | 1 | 83.7 | 96.3 |
| Or10a2 | 2 | 73.4 | 76.7 |
| Or10a2 | 3 | 97.6 | 31.1 |
| Or52e7 | 1 | 81.7 | 79.6 |
| Or52e7 | 2 | 125 (active) | 65.4 |
| Or52e7 | 3 | 80.2 | 110 |
| Ngfr | 1 | 171 (active) | 74.6 |
| Ngfr | 2 | 69.6 | 88 |
| Ngfr | 3 | 87.2 | 86.2 |
| Or52w1 | 1 | 67.7 | 66.2 |
| Or52w1 | 2 | 68.6 | 68.2 |
| Or52w1 | 3 | 78.9 | 97.2 |
| Ndc1 | 1 | 94 | 46.9 |
| Ndc1 | 2 | 55.9 | 43.9 |
| Ndc1 | 3 | 76.9 | 90 |
| Lrit2 | 1 | 60.5 | 66.3 |
| Lrit2 | 2 | 106 | 73.7 |
| Lrit2 | 3 | 93.5 | 103 |
| Rdh13 | 1 | 82.6 | 101 |
| Rdh13 | 2 | 81.6 | 88 |
| Rdh13 | 3 | 72.1 | 98.5 |
| Nxn | 1 | 90.8 | 97.7 |
| Nxn | 2 | 126 (active) | 90.6 |
| Nxn | 3 | 94.2 | 86.6 |
| Or8d2b | 1 | 53.5 | 34.8 |
| Or8d2b | 2 | 102 | 57 |
| Or8d2b | 3 | 72.5 | 120 |
| AU040320 | 1 | 42.9 | 31.7 |
| AU040320 | 2 | 69.3 | 69.4 |
| AU040320 | 3 | 52.5 | 60 |
| 5330439B14Rik | 1 | 47.5 | 34 |
| 5330439B14Rik | 2 | 88.2 | 81.2 |
| 5330439B14Rik | 3 | 73.4 | 108 |
| Haus2 | 1 | 78.3 | 84.6 |
| Haus2 | 2 | 60.1 | 82.2 |
| Haus2 | 3 | 90.2 | 72.8 |
| Lamc1 | 1 | 88.8 | 89.3 |
| Lamc1 | 2 | 60.2 | 117 |
| Plekhg4 | 1 | 126 (active) | 82.1 |
| Plekhg4 | 2 | 72.9 | 95 |
| Plekhg4 | 3 | 55.2 | 54.3 |
| Defb28 | 1 | 41.3 | 63.4 |
| Defb28 | 2 | 89 | 65.9 |
| Defb28 | 3 | 68.2 | 55.4 |
| Rhob | 1 | 62.2 | 73.5 |
| Rhob | 2 | 73.3 | 85 |
| Rhob | 3 | 69 | 60.4 |
| Ca1 | 1 | 79 | 85 |
| Ca1 | 2 | 63.6 | 54.7 |
| Or51t4 | 1 | 82.9 | 61.1 |
| Or51t4 | 2 | 135 (active) | 114 |
| Or51t4 | 3 | 46.6 | 66.2 |
| Fkbp1a | 1 | 77.8 | 88.3 |
| Fkbp1a | 2 | 64.4 | 74.8 |
| Fkbp1a | 3 | 59.9 | 63.9 |

Entries above whose target name starts with H or h (3):
| target | siRNA no. | GFP, % of control | viability (ATP), % of control |
| --- | --- | --- | --- |
| Haus2 | 1 | 78.3 | 84.6 |
| Haus2 | 2 | 60.1 | 82.2 |
| Haus2 | 3 | 90.2 | 72.8 |

The list goes on:
| target | siRNA no. | GFP, % of control | viability (ATP), % of control |
| --- | --- | --- | --- |
| Slc35h1 | 1 | 103 | 115 |
| Slc35h1 | 2 | 69.6 | 75.3 |
| Slc35h1 | 3 | 56.6 | 69.3 |
| Lpcat2b | 1 | 73.8 | 71.1 |
| Lpcat2b | 2 | 48.3 | 49 |
| Lpcat2b | 3 | 124 (active) | 81.3 |
| Eif3k | 1 | 124 (active) | 93.2 |
| Eif3k | 2 | 67.5 | 83.2 |
| Eif3k | 3 | 42.1 | 26.9 |
| Rpl41 | 1 | 87.5 | 84.6 |
| Rpl41 | 2 | 66.9 | 76.9 |
| Rpl41 | 3 | 51.1 | 55 |
| 4933409K07Rik | 1 | 61.9 | 60.1 |
| 4933409K07Rik | 2 | 88.9 | 93.9 |
| 4933409K07Rik | 3 | 123 (active) | 117 |
| Paqr9 | 1 | 56.4 | 61.4 |
| Paqr9 | 2 | 73.4 | 78.7 |
| Paqr9 | 3 | 55.9 | 79.7 |
| Ecpas | 1 | 110 | 85.5 |
| Ecpas | 2 | 57.2 | 63 |
| Ecpas | 3 | 66.3 | 76.1 |
| Pkp1 | 1 | 87 | 48.9 |
| Pkp1 | 2 | 72.5 | 51.1 |
| Pkp1 | 3 | 80.7 | 70.9 |
| Capza1 | 1 | 163 (active) | 75.6 |
| Capza1 | 2 | 61.7 | 66.8 |
| Capza1 | 3 | 57.1 | 82.9 |
| Elf1 | 1 | 59.2 | 74.6 |
| Elf1 | 2 | 113 | 93 |
| Or1j14 | 1 | 68 | 63.8 |
| Or1j14 | 2 | 52.3 | 45.5 |
| Or1j14 | 3 | 48 | 57.7 |
| Ca11 | 1 | 49.2 | 80 |
| Ca11 | 2 | 129 (active) | 95.7 |
| Vmn1r53 | 1 | 42.4 | 57.5 |
| Vmn1r53 | 2 | 65.7 | 60.6 |
| Vmn1r53 | 3 | 84.8 | 82.7 |
